PubChem BioAssay AID686943, Drosophila RNAi Screening Center – 2013

Screen: 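Search across the genome for regulators of signalling from receptor tyrosine kinase to ERK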 (primary screen)
Cells: Drosophila S2R+ haemocyte-like cells expressing YFP-tagged ERK (Rolled)
Reagents: long dsRNA against Drosophila genes
Treatment: insulin stimulation versus unstimulated cells; dose and duration not given
Detection: 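Antibody staining for doubly phosphorylated ERK divided by ERK-YFP signal, as plate z-scores, in insulin-treated and untreated cells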
Direction: replicate 1, z-score of dpERK with insulin: higher = more active ERK per ERK-YFP after insulin
In all, the deposit lists about 23,000 reagents; below is an unselected part of those with a known target gene and a result. 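Extra replicates exist only for a retested subset of genes; insulin dose and duration not given; both raised and lowered dpERK matter.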 Not all columns of the deposit are shown. Reagent sequences are not shown. Not stated in the record: the amount of reagent, the time to read-out.

After knock-down of dpp (decapentaplegic) [DRSC00118] the results were replicate 1, z-score of dpERK with insulin 2.6. After knock-down of dpp (decapentaplegic) [DRSC00121], the screen gave replicate 1, z-score of dpERK with insulin 0.08. With knock-down of dpp (decapentaplegic) [DRSC00813] the results were replicate 1, z-score of dpERK with insulin -0.31. Depletion of CG17026 [DRSC10237] came out at: replicate 1, z-score of dpERK with insulin 0.68. Mybbp1A (MYB binding protein 1a) [DRSC18788] scored replicate 1, z-score of dpERK with insulin -0.6. After knock-down of Npc1b (Niemann-Pick type C-1b) [DRSC20488], the screen gave replicate 1, z-score of dpERK with insulin -0.09.

2 entries from above, arranged by “replicate 1, z-score of dpERK with insulin”, ascending:
Mybbp1A (MYB binding protein 1a) [DRSC18788] | replicate 1, z-score of dpERK with insulin = -0.6
CG17026 [DRSC10237] | replicate 1, z-score of dpERK with insulin = 0.68

The results go on:
CG31371 [DRSC15079] showed replicate 1, z-score of dpERK with insulin 0.28. Depletion of CG15450 [DRSC20522] resulted in: replicate 1, z-score of dpERK with insulin 0.47. Knock-down of Tif-IA [DRSC03717] resulted in: replicate 1, z-score of dpERK with insulin 0.06. For Tif-IA [DRSC03726], the entry reads replicate 1, z-score of dpERK with insulin -0.05. With knock-down of Npc2c (Niemann-Pick type C-2c) [DRSC15523], the record shows replicate 1, z-score of dpERK with insulin -0.25. Silencing of Stlk (Ste20-like kinase) [DRSC22687] resulted in: replicate 1, z-score of dpERK with insulin -4.46.
